The target in the assay is T1, cellular AIMP1/p43 in HEK 293 cells (human (endogenous in HEK 293)) (UniProt Q12904).
T1 sequence: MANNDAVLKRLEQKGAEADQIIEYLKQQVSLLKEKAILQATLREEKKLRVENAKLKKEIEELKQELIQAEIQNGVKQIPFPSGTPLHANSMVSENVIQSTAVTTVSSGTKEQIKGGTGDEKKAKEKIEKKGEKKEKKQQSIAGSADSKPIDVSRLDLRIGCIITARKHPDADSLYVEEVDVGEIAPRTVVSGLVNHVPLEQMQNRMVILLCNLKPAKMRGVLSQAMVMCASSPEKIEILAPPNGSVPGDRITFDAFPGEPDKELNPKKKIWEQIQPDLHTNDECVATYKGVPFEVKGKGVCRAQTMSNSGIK
As to the kind of experiment: co-IP; transfected HEK 293 cells lysed in RIPA buffer after 36 hours; 2 µg antibody, 4°C, protein G; IgG as control; western blot. A general note: Immunoblotting shows a protein as a band on a membrane.

These are yes or no findings as the source states them, for the method shown. In cells and extracts the contact can be indirect. A result given as binding can be weak or reduced; the word gives no strength.

Experimental findings from PMC4015952 are described below.

For the substance “V5-tagged E2 made from core-E1-E2 expressed from one plasmid (hepatitis C virus 2a type (JFH1))”, the binding result was “binds”.
